# Measured values taken from patent US8486950B2, “Janus kinase inhibitor compounds and methods” (F. Hoffmann-La Roche AG, priority 2009, dated 2013).
# Some results were stated once for a whole list of compounds, not compound by compound.
# Biological target: T1, TYK2 kinase domain (Homo sapiens, UniProt P29597)
# T1 construct: made in house; host or cells: SF9 insect cells (recombinant baculovirus)
# T1 sequence (P29597 873-1187): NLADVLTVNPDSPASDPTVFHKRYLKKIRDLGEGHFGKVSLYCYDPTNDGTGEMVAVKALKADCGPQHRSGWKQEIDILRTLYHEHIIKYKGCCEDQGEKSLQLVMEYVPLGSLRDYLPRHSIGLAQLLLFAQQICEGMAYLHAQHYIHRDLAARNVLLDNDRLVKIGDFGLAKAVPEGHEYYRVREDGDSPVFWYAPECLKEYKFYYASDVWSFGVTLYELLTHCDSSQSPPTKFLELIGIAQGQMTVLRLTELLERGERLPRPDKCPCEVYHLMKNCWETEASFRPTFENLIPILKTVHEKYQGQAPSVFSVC
# Test: TYK2 inhibition assay (Caliper LabChip, isolated kinase domain)
# Type: biochemical
# Conditions: 25 uM ATP, values given as 'about'
# From the text: The catalytically active kinase domain of human JAK1, JAK2, JAK3 or TYK2 was purified from extracts of SF9 insect cells infected with a recombinant baculovirus expression vector encoding the human JAK1, JAK2, JAK3 or TYK2 kinase domains (JAK1 amino acid residues N852-D1154 according to the numbering of GenBank sequence accession number P23458, JAK2 amino acid residues D812-G1132 according to the numbering of GenBank sequence accession number NP_004963.1; JAK3 amino acid residues S783-S1124 according to the numbering of GenBank sequence accession number P52333, and TYK2 amino acid residues N873-C1187 according to the numbering of GenBank sequence accession number P29597). The activity of the JAK1, JAK2, JAK3 or TYK2 kinase domains can be measured by a number of direct and indirect methods, including quantification of phosphorylation of peptide substrates derived from the human JAK3 protein (Saltzman et al., Biochem. Biophys. Res. Commun. 246:627-633 (2004)). The activity of the JAK1, JAK2, JAK3 or TYK2 kinase domains was measured in vitro by monitoring phosphorylation of JAK3 derived peptides using the Caliper LabChip technology (see Examples).
# The activity of the isolated JAK1, JAK2 or TYK2 kinase domain was measured by monitoring phosphorylation of a peptide derived from JAK3 (SEQ ID NO:1 […] fluorescently labeled on the N-terminus with 5-carboxyfluorescein using the Caliper LabChip technology (Caliper Life Sciences, Hopkinton, Mass.). […] Reactions were incubated at 22° C. in 384-well polypropylene microtiter plates for 30 minutes and then stopped by addition of 25 uL of an EDTA containing solution (100 mM Hepes pH 7.2, 0.015% Brij-35, 150 mM EDTA), resulting in a final EDTA concentration of 50 mM. After termination of the kinase reaction, the proportion of phosphorylated product was determined as a fraction of total peptide substrate using the Caliper LabChip 3000 according to the manufacturer's specifications. Ki values were then determined using the Morrison tight binding model. Morrison, J. F., Biochim. Biophys. Acta. 185:269-296 (1969); William, J. W. and Morrison, J. F., Meth. Enzymol., 63:437-467 (1979).
row,SMILES,Ki [µM]
1,"O=C(Nc1ccnc(NC(=O)[C@@H]2C[C@H]2F)c1)c1c(Cl)cc(Cl)cc1Cl (relative stereo) [Example 307, 2,4,6-trichloro-N-(2-(trans-2-fluorocyclopropanecarboxamido)pyridin-4-yl)benzamide]",< 3.5
2,"O=C(Nc1ccnc(NC(=O)[C@H]2C[C@H]2F)c1)c1c(Cl)cc(Cl)cc1Cl (relative stereo) [Example 308, 2,4,6-trichloro-N-(2-(cis-2-fluorocyclopropanecarboxamido)pyridin-4-yl)benzamide]",< 3.5
3,"O=C(Nc1ccnc(NC(=O)[C@H]2C[C@H]2F)c1)c1c(F)cccc1Br (relative stereo) [Example 313, 2-bromo-6-fluoro-N-(2-(cis-2-fluorocyclopropanecarboxamido)pyridin-4-yl)benzamide]",< 3.5
4,"O=C(Nc1ccnc(NC(=O)[C@@H]2C[C@H]2F)c1)c1c(F)cccc1Br (relative stereo) [Example 314, 2-bromo-6-fluoro-N-(2-(trans-2-fluorocyclopropanecarboxamido)pyridin-4-yl)benzamide]",< 3.5
5,"O=C(Nc1ccnc(NC(=O)[C@H]2C[C@H]2F)c1)c1c(Cl)cc(CO)cc1Cl (relative stereo) [Example 315, 2,6-dichloro-N-(2-(cis-2-fluorocyclopropanecarboxamido)pyridin-4-yl)-4-(hydroxymethyl)benzamide]",< 3.5
6,"O=C(Nc1ccnc(NC(=O)[C@H]2C[C@@H]2F)c1)c1c(Cl)cc(CO)cc1Cl (relative stereo) [Example 316, 2,6-dichloro-N-(2-(trans-2-fluorocyclopropanecarboxamido)pyridin-4-yl)-4-(hydroxymethyl)benzamide]",< 3.5
7,"O=C(Nc1ccnc(NC(=O)[C@H]2C[C@H]2F)c1)c1c(Cl)cc(CN2CCOCC2)cc1Cl (relative stereo) [Example 317, 2,6-dichloro-N-(2-(cis-2-fluorocyclopropanecarboxamido)pyridin-4-yl)-4-(morpholinomethyl)benzamide]",< 3.5
8,"O=C(Nc1ccnc(NC(=O)[C@H]2C[C@@H]2F)c1)c1c(Cl)cc(CN2CCOCC2)cc1Cl (relative stereo) [Example 318, 2,6-dichloro-N-(2-(trans-2-fluorocyclopropanecarboxamido)pyridin-4-yl)-4-(morpholinomethyl)benzamide]",< 3.5
9,"NCc1cc(Cl)c(C(=O)Nc2ccnc(NC(=O)[C@H]3C[C@H]3F)c2)c(Cl)c1 (relative stereo) [Example 321, 4-(aminomethyl)-2,6-dichloro-N-(2-(cis-2-fluorocyclopropanecarboxamido)pyridin-4-yl)benzamide]",< 3.5
10,"NCc1cc(Cl)c(C(=O)Nc2ccnc(NC(=O)[C@H]3C[C@@H]3F)c2)c(Cl)c1 (relative stereo) [Example 322, 4-(aminomethyl)-2,6-dichloro-N-(2-(trans-2-fluorocyclopropanecarboxamido)pyridin-4-yl)benzamide]",< 3.5
11,"CN(C)Cc1cc(Cl)c(C(=O)Nc2ccnc(NC(=O)[C@H]3C[C@H]3F)c2)c(Cl)c1 (relative stereo) [Example 323, 2,6-dichloro-4-((dimethylamino)methyl)-N-(2-(cis-2-fluorocyclopropanecarboxamido)pyridin-4-yl)benzamide]",< 3.5
12,"CN(C)Cc1cc(Cl)c(C(=O)Nc2ccnc(NC(=O)[C@H]3C[C@@H]3F)c2)c(Cl)c1 (relative stereo) [Example 324, 2,6-dichloro-4-((dimethylamino)methyl)-N-(2-(trans-2-fluorocyclopropanecarboxamido)pyridin-4-yl)benzamide]",< 3.5
13,"CNCc1cc(Cl)c(C(=O)Nc2ccnc(NC(=O)[C@H]3C[C@H]3F)c2)c(Cl)c1 (relative stereo) [Example 393, 2,6-dichloro-N-(2-(cis-2-fluorocyclopropanecarboxamido)pyridin-4-yl)-4-((methylamino)methyl)-benzamide]",< 3.5
14,"NC[C@H]1C[C@H]1C(=O)Nc1cc(NC(=O)c2c(F)cccc2Cl)ccn1 (relative stereo) [Example 608, cis-N-(2-(2-(aminomethyl)cyclopropanecarboxamido)pyridin-4-yl)-2-chloro-6-fluorobenzamide]",< 3.5
15,"CN(C)C[C@H]1C[C@H]1C(=O)Nc1cc(NC(=O)c2c(F)cccc2Cl)ccn1 (relative stereo) [Example 609, cis-2-chloro-N-(2-(2-((dimethylamino)methyl)-cyclopropanecarboxamido)pyridin-4-yl)-6-fluorobenzamide]",< 3.5
16,"CC(=O)NC[C@H]1C[C@H]1C(=O)Nc1cc(NC(=O)c2c(F)cccc2Cl)ccn1 (relative stereo) [Example 610, cis-N-(2-(2-(acetamidomethyl)cyclopropanecarboxamido)-pyridin-4-yl)-2-chloro-6-fluorobenzamide]",< 3.5
17,"O=C(Nc1ccnc(NC(=O)C2CC2)c1F)c1c(Cl)cccc1Cl (single isomer, unassigned) [Example 263, 2,6-dichloro-N-(3-fluoro-2-cyclopropanecarboxamidopyridin-4-yl)benzamide]",< 3.5
18,"O=C(Nc1cc(NC(=O)C2CC2)ncc1F)c1c(Cl)cccc1Cl (single isomer, unassigned) [Example 264, 2,6-dichloro-N-(5-fluoro-2-cyclopropanecarboxamidopyridin-4-yl)benzamide]",< 3.5
19,"O=C(Nc1ccncc1)c1c(Cl)cc(Cl)cc1Cl [Example 1, 2,4,6-trichloro-N-(pyridin-4-yl)benzamide]",< 3.5
20,"O=C(Nc1ccncn1)c1c(Cl)cccc1Cl [Example 3, 2,6-dichloro-N-(pyrimidin-4-yl)benzamide]",< 3.5
21,"O=C(Nc1ccnc(Nc2nccs2)c1)c1c(Cl)cccc1Cl [Example 4, 2,6-dichloro-N-(2-(thiazol-2-ylamino)pyridin-4-yl)benzamide]",< 3.5
22,"O=C(Nc1cc(NC(=O)c2c(Cl)cccc2Cl)ccn1)c1cccs1 [Example 5, N-(4-(2,6-dichlorobenzamido)pyridin-2-yl)thiophene-2-carboxamide]",< 3.5
23,"O=C(Nc1cc(NC(=O)c2c(Cl)cccc2Cl)ccn1)c1cnc(Br)s1 [Example 7, 2-Bromo-N-(4-(2,6-dichlorobenzamido)pyridin-2-yl)thiazole-5-carboxamide]",< 3.5
24,"O=C(Nc1cc(NC(=O)c2c(Cl)cccc2Cl)ccn1)c1cnc(N2CCOCC2)s1 [Example 8, N-(4-(2,6-dichlorobenzamido)pyridin-2-yl)-2-morpholinothiazole-5-carboxamide]",< 3.5
25,"O=C(Nc1ccncc1)c1c(Cl)cc(I)cc1Cl [Example 9, 2,6-dichloro-4-iodo-N-(pyridine-4-yl)benzamide]",< 3.5
26,"N#Cc1cc(Cl)c(C(=O)Nc2ccncc2)c(Cl)c1 [Example 10, 2,6-dichloro-4-cyano-N-(pyridine-4-yl)benzamide]",< 3.5
27,"O=C(Nc1ccncc1)c1c(Cl)cc(-c2cc[nH]n2)cc1Cl [Example 11, 2,6-dichloro-4-(1H-pyrazol-3-yl)-N-(pyridin-4-yl)benzamide]",< 3.5
28,"O=C(Nc1ccncc1)c1c(F)cccc1Br [Example 14, 2-bromo-6-fluoro-N-(pyridin-4-yl)benzamide]",< 3.5
29,"O=C(Nc1ccncc1)c1c(F)ccc(F)c1Cl [Example 15, 2-chloro-3,6-difluoro-N-(pyridin-4-yl)benzamide]",< 3.5
